PubChem BioAssay AID504793 – Drosophila RNAi Screening Center, 2011
Aim: 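Knock-downs allowing continued mitosis even though DNA is damaged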 (primary screen). Cells: Drosophila S2R+ cells. Knock-down reagent: long dsRNA against Drosophila genes, about 0.25 µg dsRNA per well. Timing: 4 days of dsRNA, then 4 hours of drug before read-out. Challenge: doxorubicin 0.5 µM for 4 hours to cause double-strand breaks, in cells also given a low, harmless dose of dsRNA against nbs to sensitise the assay. Detection: 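Per-well count of mitotic cells stained for phospho-histone H3 after doxorubicin exposure, used as mitotic index; counts are raw and not normalised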. Scale: mitotic cells: higher = more cells in mitosis, weaker G2 arrest. Call rule: 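Genes are called active only when high mitotic counts were reproduced with independent dsRNAs and mitosis was checked for delay without damage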. Calls: active = confirmed in follow-up tests; inactive = not confirmed.
In all, the deposit lists about 23,000 reagents; below is a random part of those with a known target gene and a result. Of all reagents, 62 (0.27%) got an active call. 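Calls come from follow-up tests whose scores are not deposited, so confirmed genes may have low counts here; counts are not normalised per plate.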 The raw values are shown without normalisation. The numbers tell different reagents against one gene apart.

bt (GeneID 43814) #1 | mitotic cells, replicate 1 = 6; Outcome = inactive
bt (GeneID 43814) #2 | mitotic cells, replicate 1 = 12; Outcome = inactive
bt (GeneID 43814) #3 | mitotic cells, replicate 1 = 5; Outcome = inactive
CG33322 (GeneID 2768932) | mitotic cells, replicate 1 = 4; Outcome = inactive
galene (GeneID 38133) #1 | mitotic cells, replicate 1 = 8; Outcome = inactive
galene (GeneID 38133) #2 | mitotic cells, replicate 1 = 6; Outcome = inactive
Hey (GeneID 35764) | mitotic cells, replicate 1 = 13; Outcome = inactive
mthl14 (GeneID 318046) | mitotic cells, replicate 1 = 10; Outcome = inactive
Rsph9 (GeneID 318950) #1 | mitotic cells, replicate 1 = 6; Outcome = inactive
Rsph9 (GeneID 318950) #2 | mitotic cells, replicate 1 = 5; Outcome = inactive
boil (GeneID 31416) | mitotic cells, replicate 1 = 6; Outcome = inactive
CG3224 (GeneID 31600) | mitotic cells, replicate 1 = 10; Outcome = inactive
Cdc5 (GeneID 38062) | mitotic cells, replicate 1 = 2; Outcome = inactive
CG33111 (GeneID 50068) #1 | mitotic cells, replicate 1 = 4; Outcome = inactive
CG33111 (GeneID 50068) #2 | mitotic cells, replicate 1 = 5; Outcome = inactive
ND-49L (GeneID 43073) #1 | mitotic cells, replicate 1 = 13; Outcome = inactive
ND-49L (GeneID 43073) #2 | mitotic cells, replicate 1 = 12; Outcome = inactive
Sec16 (GeneID 32209) | mitotic cells, replicate 1 = 10; Outcome = inactive
Alp13 (GeneID 41236) | mitotic cells, replicate 1 = 4; Outcome = inactive
CG5181 (GeneID 34018) | mitotic cells, replicate 1 = 5; Outcome = inactive
CG4577 (GeneID 33291) | mitotic cells, replicate 1 = 2; Outcome = inactive
et (GeneID 32975) | mitotic cells, replicate 1 = 6; Outcome = inactive
CG15252 (GeneID 31931) #1 | mitotic cells, replicate 1 = 10; Outcome = inactive
CG15252 (GeneID 31931) #2 | mitotic cells, replicate 1 = 4; Outcome = inactive
Spps (GeneID 42882) | mitotic cells, replicate 1 = 6; Outcome = inactive
lncRNA:CR32690 (GeneID 10178944) #1 | mitotic cells, replicate 1 = 5; Outcome = inactive
lncRNA:CR32690 (GeneID 10178944) #2 | mitotic cells, replicate 1 = 8; Outcome = inactive
nAChRalpha3 (GeneID 31767) #1 | mitotic cells, replicate 1 = 18; Outcome = inactive
nAChRalpha3 (GeneID 31767) #2 | mitotic cells, replicate 1 = 8; Outcome = inactive
CG1575 (GeneID 31731) #1 | mitotic cells, replicate 1 = 6; Outcome = inactive
CG1575 (GeneID 31731) #2 | mitotic cells, replicate 1 = 2; Outcome = inactive
Pi3K68D (GeneID 39329) #1 | mitotic cells, replicate 1 = 9; Outcome = inactive
Pi3K68D (GeneID 39329) #2 | mitotic cells, replicate 1 = 6; Outcome = inactive
RalGPS (GeneID 36881) #1 | mitotic cells, replicate 1 = 4; Outcome = inactive
RalGPS (GeneID 36881) #2 | mitotic cells, replicate 1 = 2; Outcome = inactive

Entries listed so far whose gene name begins with P or p:
Pi3K68D (GeneID 39329) #1 | mitotic cells, replicate 1 = 9; Outcome = inactive
Pi3K68D (GeneID 39329) #2 | mitotic cells, replicate 1 = 6; Outcome = inactive
